PubChem BioAssay AID2417 (National Center for Advancing Translational Sciences (NCATS), 2010)
About 4,300 (3.1%) of roughly 140,000 compounds were called active. The shares of active, inactive and inconclusive entries below differ from those in the screen.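 Rule for the calls: active = readout at or below -70, meaning at least 70% loss of cells showing the perinucleolar compartment, a nuclear body marking cancer cells; inconclusive = readout between -30 and a set limit; inactive = the rest.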

Assay: High Content Assay for Compounds that inhibit the Assembly of the Perinucleolar Compartment;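 note: plate controls were DMSO wells for no effect and camptothecin positive control wells for full effect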
Conditions: PC3M PTB-GFP, PNC prevalence imaging, 16 h; at 10 µM; hits give low values
How it was run: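 Compounds are pinned in duplicate onto adhered PC3M cells stably expressing GFP-tagged PTB and incubated 16 h at 37 C. Cells are then fixed, nuclei stained with Hoechst, and PNC-positive cells counted.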

SMILES | activity change (PNC), negative = inhibition
CCCCCCC(C)NC(=S)Nc1cc(S(=O)(=O)N(C)C)ccc1C (stereo not given) | inconclusive: -56.7%
C=CCSc1n[nH]c(-c2ccc(OCCC)cc2)n1 | inactive: 8.21%
Cc1cc(C)cc(CC(Cc2nc3ccccc3[nH]2)c2nc3ccccc3[nH]2)c1 (stereo not given) | inconclusive: -32.7%
Cc1cc(C)n2nc(-c3cccnc3)nc2n1 | inconclusive: -54.8%
CC(=O)Cn1c(C(F)(F)F)nc2ccccc21 | inconclusive: -43.2%
Cc1[nH]c(=O)[nH]c(=O)c1/C=N/NC(=O)[C@H](C)NC(=O)OC(C)(C)C | active: -106%
Cc1nn(-c2nc3ccccc3s2)c(C)c1Oc1ccccc1O | active: -100%
N#C/C=C1/NC(=O)c2ccccc2S1 | inactive: 23.7%
O=C(O)CN=C1NC2(CCCCC2)Cc2ccccc21 | active: -100%
CCCc1nc(N2CCCC2)c(C#N)c2c1CCCC2 | inconclusive: -39.8%
NC(=O)C1CCN(c2ncnc3c(-c4ccccc4)nsc23)CC1 | inconclusive: -36.1%
COc1ccc(OC)c(C2=NOC(C(=O)Nc3cccc(C(C)=O)c3)C2)c1 (stereo not given) | inactive: 9.64%
CCOC(=O)c1cnn(-c2c(Cc3ccccc3)c(C)nc3c(-c4ccccc4)c(C)nn23)c1N | inactive: -27.5%
CCOC(=O)C1CCN(C(=O)COc2ccc(Br)cc2)CC1 | active: -96.9%
O=C(O)C1CCCCC1C(=O)NCc1ccccc1 (stereo not given) | inconclusive: -59.5%
O=C(NC1CCCCC1)OCCN1CCN(Cc2ccccc2)CCC1=O | inconclusive: -50.5%
O=S(=O)(c1ccccc1)N(CC(O)Cn1c2ccccc2c2ccccc21)c1ccccc1 (stereo not given) | inconclusive: -35.2%
O=C(CSc1ncn(-c2ccccc2)n1)Nc1nc(-c2ccccc2)cs1 | inconclusive: -32.6%
COc1ccc(N2CCN(C(=O)c3ccc(NS(=O)(=O)c4ccc(F)c(F)c4)cc3)CC2)cc1 | inconclusive: -79.8%
O=C(/C=C/c1ccc(Cl)c([N+](=O)[O-])c1)Nc1cccnc1 | inactive: 30.5%
O=C(O)c1cccc(S(=O)(=O)Nc2ccccc2Cl)c1 | inconclusive: -31%
Cc1ccccc1-c1noc(N)c1C#N | inactive: 38.5%
COc1ccccc1CNC(=O)C(CCSC)NC(=O)C1CCC(C)CC1 (stereo not given) | inactive: -4.21%

SMILES | activity change (PNC), negative = inhibition
FC(F)(F)c1nnc2ccc(N3CCOCC3)nn12 | inconclusive: -37.5%
CCOc1ccc(-c2nnc(Nc3ccc(OC)c(C(=O)N4CCCCC4)c3)c3ccccc23)cc1 | inconclusive: -39.3%
COc1ccc(CNC(=O)[C@H](C)[C@@H]2C[C@@]2(C)[C@@H](NC(=O)OCc2ccccc2)c2ccccc2)cc1OC | inactive: 37.2%
COc1ccc(-n2ccnc2SCC(=O)Nc2ccccc2)cc1 | inconclusive: -31.7%
Cc1ccccc1Oc1ccc(NC(=O)C2CC=CCC2C(=O)O)cc1 (stereo not given) | active: -82.9%
Cc1ccc(CN2C(=O)CCC2C(=O)NCc2cccnc2)cc1 (stereo not given) | inactive: 42%
Cn1nnc2cc(NC(=O)NCc3ccc4c(c3)OCO4)ccc21 | inconclusive: -40.2%
C=CCNC(=O)c1c(Cl)cccc1Cl | inactive: -3.58%
CCOc1ccc(NC(=O)COc2ccc(C(=O)NCCc3ccccc3)cc2)cc1 | active: -105%
O=C1c2[nH]nc(-c3ccccc3O)c2C(c2cccc(Cl)c2)N1CC1CCCO1 (stereo not given) | inconclusive: -60.4%
Cc1ccc(Cl)cc1N1CCN(C(=O)CN(C2CCCCC2)S(C)(=O)=O)CC1 | inconclusive: -31.4%
COc1ccc(C2=CC(c3ccc(C)cc3)n3nnnc3N2)cc1 (stereo not given) | inactive: -1.23%
Cc1nc2c(=O)[nH]c(=S)n(C)c2nc1C | active: -114%
CCOc1cc2c(cc1OCC)C(C(=O)O)C(c1ccc(OC)c(O)c1)N(C)C2=O (stereo not given) | inconclusive: -44.4%
CC(=O)N[C@H]1C[C@@H]1c1ccccc1 | inconclusive: -65.8%
CCOC(=O)c1[nH]c(C)c(C(=O)Nc2ccccc2C)c1C | inconclusive: -74.8%
O=C1CCC(=O)N1CCCCCc1nc(-c2ccccc2)no1 | inconclusive: -36.7%
Cc1cc(C)c2c(c1)[C@@H]1C=CC[C@@H]1[C@H](c1ccc(S(=O)(=O)N3CCOCC3)cc1)N2 | active: -80.9%
CCN(CC#CCC1(O)c2ccccc2-c2ccccc21)CCO | inactive: 37.1%
O=c1[nH]c2c(s1)C(c1ccccc1)C1C3CCC(C3)C1S2 (stereo not given) | inconclusive: -35.5%
Cc1oc(-c2cccc(Cl)c2)nc1CN1CCC(C(=O)NCc2ccco2)CC1 | inconclusive: -51.7%
Cn1cccc1/C=C1\SC(=S)N(NC(=O)c2ccccc2Cl)C1=O | inactive: 15.8%
CCCn1cc(SCC(=O)Nc2nnc(C)s2)c2ccccc21 | inconclusive: -60.8%

SMILES | activity change (PNC), negative = inhibition
CSc1nc2ccc(S(=O)(=O)NC3CCCCC3)cc2s1 | inactive: 2.92%
Cc1oc2cc(OCC(=O)O)ccc2c(=O)c1Oc1ccccc1 | inconclusive: -53.5%
CC1CCCN(S(=O)(=O)c2ccc(S(=O)(=O)NC(C)c3cccs3)cc2)C1 (stereo not given) | inconclusive: -30.7%
O=C(NCCSCc1ccco1)Nc1cccc(Cl)c1 | active: -83.7%
COc1ccc(OC)c2[nH]c(=O)c(CCNS(=O)(=O)c3ccccc3)cc12 | inconclusive: -39.5%
CCC1S/C(=N/N=C/c2cccs2)NC1=O (stereo not given) | inconclusive: -40.1%
Cc1c(N=C/C=C/c2ccccc2)c(=O)n(-c2ccccc2)n1C | inconclusive: -71.6%
O=[N+]([O-])c1cccc(S(=O)(=O)c2ccc(N3CCCCC3)c([N+](=O)[O-])c2)c1 | inconclusive: -51.3%
Cc1cc(C(=O)NCCCN2CCCC2=O)cs1 | inconclusive: -63.8%
O=C(Nc1ccc(Cl)cc1C(=O)N1CCOCC1)c1cccc([N+](=O)[O-])c1 | inactive: -24.4%
Cc1cccc(NC(=O)CSc2nc(C)nc3c2c(=O)n(C)c(=O)n3C)c1 | inconclusive: -42.5%
CCOC(=O)C1CCCCN1Cc1cccc(C(F)(F)F)c1 (stereo not given) | inconclusive: -65.9%
CC(C)(C)C(=O)N1CCN(c2ccc([N+](=O)[O-])c(-n3nc(-c4ccccc4)c4ccccc4c3=O)c2)CC1 | inconclusive: -49%
O=C(COC(=O)Cn1cnc2ccccc21)NCCc1ccc(Cl)cc1 | inconclusive: -32.7%
COc1cccc(CN(C)C(=O)Nc2cccc(C(F)(F)F)c2)c1OC | inconclusive: -34.5%
CC1CCN(S(=O)(=O)c2ccc3[nH]c(=O)cc(C(=O)O)c3c2)CC1 | inconclusive: -36.2%
CC1(C)CC(=O)C(C=NCC(O)c2ccccc2)=C(O)C1 (stereo not given) | inconclusive: -34.1%
O=c1c(Cc2ccc(F)cc2)c(O)ccn1Cc1cccc(Cl)c1 | inconclusive: -35%
COc1ccc2cc(/C=N/NC(=O)c3ccc(CN(c4ccc(C)c(C)c4)S(C)(=O)=O)cc3)c(Cl)nc2c1 | inactive: 17.8%
Cc1c(C(=O)OC(C)CCN(C)C)oc2ccccc12 (stereo not given) | inconclusive: -34.7%
CCOC(=O)N1CCC(n2c(SCC(=O)Nc3nccs3)nc3ccsc3c2=O)CC1 | inconclusive: -54.4%
COc1ccc(-c2noc(-c3ccccc3C(=O)NCc3ccco3)n2)cc1OC | inconclusive: -68.4%
c1ccc(Cn2nnnc2C(c2cccs2)N2CCc3ccccc3C2)cc1 (stereo not given) | inactive: 27.5%

2 entries from above, with each value named.
O=C(COC(=O)Cn1cnc2ccccc21)NCCc1ccc(Cl)cc1
  activity change (PNC), negative = inhibition: inconclusive: -32.7%
COc1cccc(CN(C)C(=O)Nc2cccc(C(F)(F)F)c2)c1OC
  activity change (PNC), negative = inhibition: inconclusive: -34.5%

(continued)

SMILES | activity change (PNC), negative = inhibition
CN(C)c1ccc(-c2nnn(CC(=O)N3c4ccccc4CCc4ccccc43)n2)cc1 | inconclusive: -55.6%
Cc1noc(C)c1CSc1nnc(-c2ccccc2F)n1CCc1ccccc1 | inconclusive: -64.4%
Cc1ccc(S(=O)(=O)N2CCN(C(=O)C3Cc4ccccc4CN3C(=O)c3ccco3)CC2)cc1 (stereo not given) | inactive: 67.3%
Cc1ccccc1NC(=S)N1CCN(Cc2ccc3c(c2)OCO3)CC1 | inconclusive: -65%
CCOC(=O)CCC(NC(=O)CCC(=O)NC(CCC(=O)OCC)C(=O)OCC)C(=O)OCC (stereo not given) | active: -134%
C=CCC1(O)CC(c2ccco2)NC(c2ccco2)C1CCC (stereo not given) | inactive: 54.5%
CCOC(=O)C(CC)Sc1nnc(COc2ccc(C)cc2)n1-c1ccccc1 (stereo not given) | inconclusive: -62.9%
CC(CCc1ccccc1)NC(=O)c1cccnc1 (stereo not given) | inconclusive: -42.3%
c1ccc(-c2nnc3sc(CN4CCc5ccccc54)cn23)cc1 | inactive: 143%
CC(C)(C)c1cc(C(=S)N2CCN(CCO)CC2)cc(C(C)(C)C)c1O | inconclusive: -31.7%
O=C(CSCc1cccc(CSCC(=O)Nc2ccccc2)n1)Nc1ccccc1 | inconclusive: -48.6%
Cc1ccc(S(=O)(=O)N2CCCC(C(=O)NCc3ccccn3)C2)cc1 (stereo not given) | inconclusive: -71.4%
CSc1nc(N)nc(SCC(=O)c2ccccc2)c1C#N | inactive: 29.9%
CC(=O)c1cc2c(cc1N/C(=N/S(=O)(=O)c1ccc(C)cc1)c1ccc(Cl)cc1)OCO2 | inconclusive: -71%
CCOc1ccc(OCC)c(NC(=O)CSc2nc3c(c(=O)n(C)c(=O)n3C)n2CC)c1 | inconclusive: -52.2%
NC(=O)c1nn(-c2cccc(Cl)c2)c(=O)cc1O | active: -100%
O=C1CC(N2CCN(c3nc4ccccc4s3)CC2)C(=O)N1Cc1cccs1 (stereo not given) | inconclusive: -40.4%
COc1ccccc1-c1cc(C(F)(F)F)nc(S(=O)(=O)CCCC(=O)O)n1 | inactive: 52%
COc1ccccc1NC(=O)c1ccc(Br)o1 | inconclusive: -52.5%
COc1ccc(C/C(C)=N/NC(=O)c2ccncc2)cc1 | inactive: 36.6%
O=S(Cc1ccc(Cl)cc1)CC(O)(c1ccccc1)c1ccccc1 (stereo not given) | inconclusive: -51%

Six compounds drawn at random from the list so far:
SMILES | activity change (PNC), negative = inhibition
CCOC(=O)C(CC)Sc1nnc(COc2ccc(C)cc2)n1-c1ccccc1 (stereo not given) | inconclusive: -62.9%
NC(=O)c1nn(-c2cccc(Cl)c2)c(=O)cc1O | active: -100%
c1ccc(-c2nnc3sc(CN4CCc5ccccc54)cn23)cc1 | inactive: 143%
CCOC(=O)CCC(NC(=O)CCC(=O)NC(CCC(=O)OCC)C(=O)OCC)C(=O)OCC (stereo not given) | active: -134%
CN(C)c1ccc(-c2nnn(CC(=O)N3c4ccccc4CCc4ccccc43)n2)cc1 | inconclusive: -55.6%
COc1ccccc1-c1cc(C(F)(F)F)nc(S(=O)(=O)CCCC(=O)O)n1 | inactive: 52%
